The other results are listed elsewhere or left out. These are further read-outs of the screen, such as a control signal, another cell line or another target. No call is given for them. Compounds called inactive in the main read-out are mostly missing here. Potencies come from curve fits of mixed quality, noted in brackets.
Experiment: qHTS Assay for Lipid Storage Modulators in Drosophila S3 Cells;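 on cell number change: cells counted by Cell Tracker Red CMTPX staining in the red channel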
Conditions: BODIPY lipid droplet fluorescence, 18-24 h; for cell number change: measured here: cell count max response, cells fed with added oleic acid
How it was run: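 Laser-scanning cytometry quantifies lipid droplet accumulation (500–530 nm total intensity; droplet/cell object ratio) in oleic acid-fed (400 uM added) Drosophila S3 cells treated with a concentration series. 20 uM Triacsin C defined 100% inhibition.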

[1] = measured here: cell number channel AC50, cells fed with added oleic acid
[2] = measured here: lipid fluorescence (Fed channel) AC50, cells fed with added oleic acid

Row | Compound | cell number change [%] | AC50 [1] | AC50 [2]
1 | CN(C)CCCNC(=S)Nc1ccc(-c2ccccc2)cc1 | -34 | 3.66 µM [falling, full curve] | 2.31 µM [falling, partial curve, poor fit]
2 | COc1ccc(-c2csc(N)n2)cc1 | -0.169 | – | 29.1 µM [rising, single point]
3 | CN1CCN(C(=S)c2ccc(-c3cccc(Cl)c3Cl)o2)CC1 | -38.9 | 14.6 µM [falling, single point] | 14.6 µM [falling, single point]
4 | Cc1[nH]c(=O)[nH]c(=O)c1/C=N/NC(=O)[C@@H](NC(=O)OC(C)(C)C)C(C)C | 7.19 | – | 23.1 µM [rising, single point]
5 | c1ccc(-c2noc(-c3cccc4ccccc34)n2)cc1 | – | – | 2.91 µM [rising, single point]
6 | C/C(=N\NC(=O)COc1ccc(C#N)cc1)c1ccc(N2CCOCC2)cc1 | -50 | 23.1 µM [falling, partial curve, poor fit] | –
7 | COc1cc2c(cc1OC)C1O[C@](c3ccsc3)(C2)Oc2c1c(=O)oc1ccc(F)cc21 | 4.07 | – | –
8 | CC(=O)c1c(C)[nH]c(C(=O)NCCN2CCC(C)CC2)c1C | 8.97 | – | 18.4 µM [rising, single point]
9 | CCOc1ccccc1NC(=O)C1=C(C)NC(=S)NC1c1cccs1 (centres undefined) | 0.437 | – | 3.66 µM [rising, single point]
10 | CCOc1ccc(C(=O)Nc2ccc3[nH]ncc3c2)cc1 | 7.02 | – | –
11 | O=C(COC(=O)c1ccc(Br)o1)Nc1nc2c(F)c(F)c(F)cc2s1 | – | – | 3.26 µM [rising, partial curve]
12 | Cc1ccccc1NC(=O)Cc1nc(COC(=O)CNS(=O)(=O)c2cccc(Br)c2)cs1 | -27.3 | – | 29.1 µM [falling, single point]
13 | O=C(CN1CCCC1=O)NC1CCCc2c1cnn2-c1cc(F)cc(F)c1 (centres undefined) | -6.9 | 2.91 µM [falling, single point] | 3.26 µM [falling, single point]
14 | COc1cc(/C=C(\C#N)c2nc3ccccc3[nH]2)cc(OC)c1O | -46.4 | 25.9 µM [falling, single point] | 8.2 µM [falling, partial curve, poor fit]
15 | Cc1cc(NC(=O)CSc2ccccn2)no1 | -81.6 | 8.2 µM [falling, partial curve] | –
16 | O=C(CN1C(=O)NC(c2ccccc2)(c2ccccc2)C1=O)NCCNCCO | 15.8 | – | 29.1 µM [falling, single point]
17 | CCC(C)c1ccc(NC(=O)c2cccnc2)cc1 (centres undefined) | – | 6.51 µM [rising, single point] | –
18 | Cc1ccc(CNC(=S)N(C)C)cc1 | -5.03 | 0.00461 µM [rising, full curve, poor fit] | –
19 | COc1ccc(CCN2CC(C(=O)N(C)CCn3nc(C)cc3C)CCC2=O)cc1 (centres undefined) | 1.42 | – | 29.1 µM [falling, single point]

Row | Compound | cell number change [%] | AC50 [1] | AC50 [2]
20 | CC(C)CC1NC(=O)N(CC(=O)Nc2ccc3c(c2)CCC3)C1=O (centres undefined) | – | – | 0.517 µM [rising, partial curve, poor fit]
21 | Cc1ccc(C(=O)CSc2nnc3n2CCCCC3)s1 | -3.71 | – | 0.461 µM [falling, partial curve, poor fit]
22 | CC(C)C(C(=O)NCC1CCCO1)N(Cc1ccco1)C(=O)CNS(=O)(=O)c1ccc(F)cc1 (centres undefined) | -22.4 | – | 3.26 µM [rising, partial curve, poor fit]
23 | Cc1cc(N2C(=O)C(O)=C(C(=O)c3ccco3)C2c2ccc(O)cc2)no1 (centres undefined) | -4.61 | – | –
24 | Cc1ccc(NC(=O)CCn2cccc2)cc1F | -17.5 | – | –
25 | CC1CC(C)CN(C(=O)CNC(=O)Cn2ccc3ccccc3c2=O)C1 (centres undefined) | -12.2 | 0.82 µM [falling, single point] | 0.82 µM [falling, partial curve, poor fit]
26 | CNC(=O)c1[nH]cnc1C(=O)NCC(=O)OC(C)(C)C | 3.59 | – | 6.51 µM [rising, single point]
27 | COc1cccc(Nc2nc(-c3sc(N)nc3C)cs2)c1 | – | 2.91 µM [rising, partial curve] | –
28 | CC(C)C(=O)Nc1ccc(C(=O)NNC(=O)CCc2ccccc2)cc1 | 6.35 | – | 1.16 µM [falling, single point]
29 | COc1nc2ccccc2cc1-c1noc(-c2cccnc2)n1 | -6.34 | – | 13 µM [rising, single point]
30 | Cc1ccccc1NS(=O)(=O)c1cc(C(N)=O)ccc1C | 39.8 | 1.03 µM [rising, partial curve, poor fit] | 0.326 µM [rising, partial curve, poor fit]
31 | CC(=O)N1N=C(c2ccc(C)cc2)OC1c1ccc(C(C)C)cc1 (centres undefined) | -24.7 | – | –
32 | COc1cc(C(=O)O[C@H]2C/C(C)=C/CC[C@@]3(C)O[C@@H]3[C@H](O)[C@@H]2C(C)C)cc(OC)c1OC | -24.8 | – | 18.4 µM [falling, single point]
33 | CCN(CC(=O)Nc1cc(Cl)ccc1C)C(=O)CSCc1ccccc1 | -20.6 | – | –
34 | O=C(CCCl)Nc1nc2c(s1)CCc1ccccc1-2 | -17.1 | – | 3.26 µM [falling, partial curve, poor fit]
35 | COc1cc(/C=N/NC(=O)c2c(-c3c(Cl)cccc3Cl)noc2C)ccc1OCC(N)=O | -15.5 | – | 0.58 µM [falling, single point]
36 | O=C(O)c1ccc(N2CCCCS2(=O)=O)cc1 | 7.54 | – | 25.9 µM [rising, single point]
37 | O=C(c1cccnc1)N1CCN(c2ccc3ccccc3n2)CC1 | 32.2 | 11.6 µM [rising, single point] | –
38 | CS(=O)(=O)c1cnc2c(-c3ccsc3)cnn2c1N | 16.6 | – | 3.66 µM [rising, single point]

Row | Compound | cell number change [%] | AC50 [1] | AC50 [2]
39 | O=C(c1ccccc1NS(=O)(=O)c1cccs1)N1CCCC1 | -35.2 | 0.00517 µM [falling, full curve, poor fit] | 0.0164 µM [falling, full curve, poor fit]
40 | N#CC1(c2c(O)nc3n(c2=O)CCCS3)CCCCC1 | -17.6 | – | 0.0366 µM [falling, full curve, poor fit]
41 | CCCc1ccc(-c2cc(C(=O)N/N=C/c3ccc([N+](=O)[O-])o3)c3ccccc3n2)cc1 | – | 1.46 µM [rising, partial curve] | 2.31 µM [rising, partial curve]
42 | CCCCN(C(=O)C1CC(=O)N(c2ccc(C)cc2)C1)c1c(N)n(CCC)c(=O)[nH]c1=O (centres undefined) | – | – | 0.00461 µM [falling, full curve, poor fit]
43 | COc1ccc(OCC(NS(=O)(=O)c2ccc(-n3cnnn3)cc2)C(C)C)cc1 (centres undefined) | – | – | 0.103 µM [falling, full curve, poor fit]
44 | O=C(NNC(=S)Nc1ccc(Br)cc1)c1cccnc1 | 21.6 | 4.11 µM [rising, full curve, poor fit] | 6.51 µM [rising, partial curve]
45 | N#C/C(=C\c1ccc(OCc2ccc(Br)cc2)cc1)C(=O)Nc1cccc(C(=O)O)c1 | 17.1 | – | 29.1 µM [rising, partial curve]
46 | Cc1cc(O)c(-c2ccno2)cc1Cl | -26.6 | – | 1.64 µM [falling, partial curve]
47 | O=c1ccc(OCCOc2ccccc2)nn1-c1ccccc1 | -52.7 | 29.1 µM [falling, single point] | 29.1 µM [falling, single point]
48 | O=C(O)CN1CCOCCOCCN(CC(=O)O)CCOCCOCC1 | -49.3 | 5.8 µM [falling, full curve] | 0.58 µM [falling, full curve, poor fit]
49 | Cc1ccn2c(=O)nc(SCC(=O)NCc3ccccc3)nc2c1 | 36.9 | 16.4 µM [rising, partial curve, poor fit] | –
50 | COC(=O)c1c(NC(=O)CSc2ncnc3[nH]ncc23)sc2c1CCC2 | -45.8 | 29.1 µM [falling, single point] | 0.82 µM [falling, partial curve, poor fit]
51 | CCOC(=O)c1c(N)sc(C(O)(C(F)(F)F)C(F)(F)F)c1-c1ccc(Cl)cc1 | 10.7 | 2.31 µM [rising, partial curve] | 2.59 µM [rising, partial curve]
52 | CCCOc1ccc(/C(O)=C2/C(=O)C(=O)N(CCCOC)C2c2ccncc2)cc1 (centres undefined) | -86.3 | 23.1 µM [falling, partial curve, poor fit] | 25.9 µM [falling, partial curve]
53 | COc1ccc(-c2nc3ccccc3n2OC(C)C(=O)O)cc1 (centres undefined) | -13.8 | – | 29.1 µM [falling, single point]
54 | COc1ccc(NC(=O)c2ccc(-c3ccccc3)cc2)cc1NS(=O)(=O)c1ccc(F)cc1 | 3.1 | – | 0.651 µM [rising, full curve]
55 | COc1ccc(-c2noc(COc3ccc4c(c3)OCO4)n2)cc1OC | -31.9 | – | 23.1 µM [falling, single point]
56 | Cc1ccc(CNC(=O)Cn2ccc3cc(S(=O)(=O)N4CCCCCC4)ccc32)cc1 | -3.44 | – | 5.17 µM [rising, single point]
57 | Cc1cc(NC(=O)CN2CCOCC2)n(-c2nc3ccccc3s2)n1 | -15 | – | 1.46 µM [rising, partial curve]

Numbers 11–13, reprinted for reference:
Row | Compound | cell number change [%] | AC50 [1] | AC50 [2]
11 | O=C(COC(=O)c1ccc(Br)o1)Nc1nc2c(F)c(F)c(F)cc2s1 | – | – | 3.26 µM [rising, partial curve]
12 | Cc1ccccc1NC(=O)Cc1nc(COC(=O)CNS(=O)(=O)c2cccc(Br)c2)cs1 | -27.3 | – | 29.1 µM [falling, single point]
13 | O=C(CN1CCCC1=O)NC1CCCc2c1cnn2-c1cc(F)cc(F)c1 (centres undefined) | -6.9 | 2.91 µM [falling, single point] | 3.26 µM [falling, single point]
